These are yes or no findings as the source states them, for the method shown. In cells and extracts the contact can be indirect. Some results given as binding are weak or reduced against the parent protein; the word gives no strength.

By UniProt entry, the sequences of proteins in these tests, tags left out.
UniProt Q12791: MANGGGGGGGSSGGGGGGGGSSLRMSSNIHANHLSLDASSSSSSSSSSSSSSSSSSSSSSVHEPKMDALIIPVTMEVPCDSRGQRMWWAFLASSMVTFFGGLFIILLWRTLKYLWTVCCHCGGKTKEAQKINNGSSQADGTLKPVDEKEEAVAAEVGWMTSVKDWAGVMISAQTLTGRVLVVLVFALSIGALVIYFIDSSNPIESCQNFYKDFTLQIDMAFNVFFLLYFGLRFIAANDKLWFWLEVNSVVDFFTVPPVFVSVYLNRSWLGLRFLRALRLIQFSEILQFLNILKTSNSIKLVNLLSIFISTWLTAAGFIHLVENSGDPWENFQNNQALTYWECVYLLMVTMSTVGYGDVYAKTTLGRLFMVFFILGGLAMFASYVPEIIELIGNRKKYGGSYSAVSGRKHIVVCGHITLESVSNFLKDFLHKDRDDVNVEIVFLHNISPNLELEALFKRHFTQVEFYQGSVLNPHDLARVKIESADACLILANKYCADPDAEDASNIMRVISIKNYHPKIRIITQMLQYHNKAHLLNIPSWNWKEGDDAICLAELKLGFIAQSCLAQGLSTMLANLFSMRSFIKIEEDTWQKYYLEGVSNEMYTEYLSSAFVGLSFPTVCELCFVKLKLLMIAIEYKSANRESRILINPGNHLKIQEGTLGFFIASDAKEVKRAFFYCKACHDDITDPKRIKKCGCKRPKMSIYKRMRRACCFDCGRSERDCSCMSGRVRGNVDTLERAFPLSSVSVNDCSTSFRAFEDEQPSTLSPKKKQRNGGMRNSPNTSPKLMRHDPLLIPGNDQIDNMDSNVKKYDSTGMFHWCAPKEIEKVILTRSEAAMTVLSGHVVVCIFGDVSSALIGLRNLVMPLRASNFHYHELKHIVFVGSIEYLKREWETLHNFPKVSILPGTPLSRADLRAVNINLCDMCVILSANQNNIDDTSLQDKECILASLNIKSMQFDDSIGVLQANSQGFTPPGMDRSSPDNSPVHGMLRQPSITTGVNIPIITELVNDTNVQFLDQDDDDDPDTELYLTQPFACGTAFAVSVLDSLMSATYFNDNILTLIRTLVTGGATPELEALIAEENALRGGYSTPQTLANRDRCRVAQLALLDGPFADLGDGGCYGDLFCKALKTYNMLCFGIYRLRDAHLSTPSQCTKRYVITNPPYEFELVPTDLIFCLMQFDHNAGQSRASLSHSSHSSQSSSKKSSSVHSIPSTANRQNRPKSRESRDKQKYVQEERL
UniProt O95180: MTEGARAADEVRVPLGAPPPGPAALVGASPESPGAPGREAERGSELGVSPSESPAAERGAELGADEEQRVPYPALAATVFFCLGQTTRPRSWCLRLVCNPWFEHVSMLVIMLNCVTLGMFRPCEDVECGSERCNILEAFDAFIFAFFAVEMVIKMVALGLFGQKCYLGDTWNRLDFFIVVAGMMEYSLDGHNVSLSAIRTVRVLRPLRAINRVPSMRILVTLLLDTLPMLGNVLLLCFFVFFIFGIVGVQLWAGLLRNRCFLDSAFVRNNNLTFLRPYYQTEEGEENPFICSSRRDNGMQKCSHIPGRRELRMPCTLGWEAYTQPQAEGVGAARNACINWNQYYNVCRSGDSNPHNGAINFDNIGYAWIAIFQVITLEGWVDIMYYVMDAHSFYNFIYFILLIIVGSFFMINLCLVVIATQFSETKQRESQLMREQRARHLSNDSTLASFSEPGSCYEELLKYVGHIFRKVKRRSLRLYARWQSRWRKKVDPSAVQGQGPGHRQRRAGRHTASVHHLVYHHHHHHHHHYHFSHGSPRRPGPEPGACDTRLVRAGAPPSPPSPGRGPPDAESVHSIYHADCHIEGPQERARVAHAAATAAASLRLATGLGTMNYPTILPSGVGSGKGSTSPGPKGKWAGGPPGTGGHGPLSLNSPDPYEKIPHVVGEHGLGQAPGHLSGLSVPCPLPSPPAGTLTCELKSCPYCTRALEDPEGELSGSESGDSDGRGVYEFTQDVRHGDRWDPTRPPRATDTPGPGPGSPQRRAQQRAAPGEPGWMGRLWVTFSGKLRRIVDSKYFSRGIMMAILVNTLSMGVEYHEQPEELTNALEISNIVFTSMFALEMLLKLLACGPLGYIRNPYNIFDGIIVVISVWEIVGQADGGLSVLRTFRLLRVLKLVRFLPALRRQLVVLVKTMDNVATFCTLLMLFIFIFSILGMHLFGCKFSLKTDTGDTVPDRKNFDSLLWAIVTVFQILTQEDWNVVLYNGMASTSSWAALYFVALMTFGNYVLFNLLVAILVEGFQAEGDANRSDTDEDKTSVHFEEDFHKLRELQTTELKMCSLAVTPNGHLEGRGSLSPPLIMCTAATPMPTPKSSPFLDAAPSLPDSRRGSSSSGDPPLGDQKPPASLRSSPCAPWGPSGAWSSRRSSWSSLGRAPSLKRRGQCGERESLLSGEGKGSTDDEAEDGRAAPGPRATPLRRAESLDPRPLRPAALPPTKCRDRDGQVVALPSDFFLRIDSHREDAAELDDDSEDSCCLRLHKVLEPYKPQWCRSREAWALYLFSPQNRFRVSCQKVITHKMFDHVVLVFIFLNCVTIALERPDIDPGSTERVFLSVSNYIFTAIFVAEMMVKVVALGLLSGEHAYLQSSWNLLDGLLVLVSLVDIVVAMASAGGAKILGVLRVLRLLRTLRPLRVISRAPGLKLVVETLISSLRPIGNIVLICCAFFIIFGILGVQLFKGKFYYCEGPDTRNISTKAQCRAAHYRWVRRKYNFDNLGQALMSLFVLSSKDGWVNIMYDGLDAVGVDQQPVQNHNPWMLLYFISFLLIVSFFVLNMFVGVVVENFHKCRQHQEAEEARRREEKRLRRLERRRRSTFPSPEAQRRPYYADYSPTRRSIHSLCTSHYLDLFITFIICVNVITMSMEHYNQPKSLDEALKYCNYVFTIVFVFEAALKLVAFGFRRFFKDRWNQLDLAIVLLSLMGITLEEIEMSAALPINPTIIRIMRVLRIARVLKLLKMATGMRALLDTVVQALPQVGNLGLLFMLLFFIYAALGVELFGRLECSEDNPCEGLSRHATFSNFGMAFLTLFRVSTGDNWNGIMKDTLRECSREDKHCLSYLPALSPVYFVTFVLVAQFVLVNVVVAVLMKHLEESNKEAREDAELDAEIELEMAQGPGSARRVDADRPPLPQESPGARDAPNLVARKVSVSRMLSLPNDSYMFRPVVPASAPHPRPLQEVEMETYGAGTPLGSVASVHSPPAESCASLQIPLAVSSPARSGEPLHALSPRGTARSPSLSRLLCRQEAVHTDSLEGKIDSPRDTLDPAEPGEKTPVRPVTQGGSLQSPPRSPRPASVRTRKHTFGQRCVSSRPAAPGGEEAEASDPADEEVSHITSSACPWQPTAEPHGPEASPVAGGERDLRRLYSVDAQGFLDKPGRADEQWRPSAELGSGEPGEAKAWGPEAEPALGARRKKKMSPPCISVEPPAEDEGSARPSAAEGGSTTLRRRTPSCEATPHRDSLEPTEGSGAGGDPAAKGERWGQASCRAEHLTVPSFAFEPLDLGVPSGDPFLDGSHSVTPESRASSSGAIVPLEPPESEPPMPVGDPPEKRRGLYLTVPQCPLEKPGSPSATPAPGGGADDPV

Assay [1] concerns the target large-conductance Ca2+- and voltage-dependent BK potassium channel (KCa1.1) (human (endogenous in LNCaP)) (UniProt Q12791). Description: co-IP; cell extract (500 µg; lysis buffer Triton X-100 1%, Na deoxycholate 1%, NaCl 150 mM, PO4NaK 10 mM, pH 7.2) incubated overnight at 4°C with protein A/G PLUS agarose beads carrying 1 µg anti-BK or anti-α1H antibody; Western blot with the same antibodies. In general terms: Immunoblotting shows a protein as a band on a membrane.

In assay [2] the target is Cav3.2 T-type voltage-dependent calcium channel (α1H) (human) (UniProt O95180). The assay is described as above.

For the substance “Cav3.2 T-type voltage-dependent calcium channel (α1H) (from UniProt O95180 1-2353)”, in assay [1], the binding result is reported as “binds”.

Take “large-conductance Ca2+- and voltage-dependent BK potassium channel (KCa1.1) (from UniProt Q12791 1-1236)”: the binding entry in assay [2] was “binds”.

These data come from publication PMC3773341 (Biology Open, 2013).
